# Experimental data: PubChem BioAssay AID1259354 (Paczesny and Yang Labs, IUPUI and University of Michigan, 2018)
# By UniProt entry, the sequences of proteins in these tests, tags left out. Where a name states a change or a piece, a line headed by the entry shows the natural chain unless it says otherwise.
# UniProt Q01638: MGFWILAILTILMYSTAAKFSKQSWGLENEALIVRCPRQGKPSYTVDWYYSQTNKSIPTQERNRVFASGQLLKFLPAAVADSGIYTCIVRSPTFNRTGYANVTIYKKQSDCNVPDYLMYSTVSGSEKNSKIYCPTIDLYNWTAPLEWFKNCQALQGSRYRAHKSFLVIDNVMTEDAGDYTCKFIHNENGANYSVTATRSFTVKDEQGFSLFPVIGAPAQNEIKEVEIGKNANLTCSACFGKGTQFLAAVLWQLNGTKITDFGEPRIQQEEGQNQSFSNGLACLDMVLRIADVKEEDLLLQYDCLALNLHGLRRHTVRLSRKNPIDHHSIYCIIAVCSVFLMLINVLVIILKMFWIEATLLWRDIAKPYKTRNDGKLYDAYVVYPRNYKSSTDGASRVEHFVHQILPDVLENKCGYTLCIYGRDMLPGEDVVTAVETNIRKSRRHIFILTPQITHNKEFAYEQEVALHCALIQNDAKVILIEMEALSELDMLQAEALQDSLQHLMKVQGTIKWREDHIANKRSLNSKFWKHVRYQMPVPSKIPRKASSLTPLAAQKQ
# In all, about 78,000 compounds went through this assay and about 1,800 (2.3%) were called active. This list was built around the results that the source calls inconclusive (neither active nor inactive); the mix of calls is not that of the screen. Rule as the data show it: active = inhibition above about 30%; inconclusive = mostly about 10% to 28%; inactive = weaker than that.
# Target: Interleukin-1 receptor-like 1 (Homo sapiens) (UniProt Q01638)
# Assay: inhibitors of human ST2 (IL1RL1) binding to IL-33, primary screen, biochemical, AlphaLISA (AID 1259354)
# Settings: AlphaLISA ST2-Fc/biotin-IL-33 interaction, 1 h; at 17 µM, hits give high values
row,Structure (SMILES),inhibition
1,CC1(C)Cc2c(C#N)c(N3CCNCC3)nc(Cc3ccccc3)c2CO1,inconclusive: 16%
2,O=C(Nc1ccon1)c1cccn(Cc2ccc(Br)cc2)c1=O,inactive
3,O=C(Nc1ccc2n(c1=O)C[C@H]1C[C@@H]2CN(C(=O)c2ccccn2)C1)c1ccc(F)cc1,inconclusive: 19%
4,COc1ccc(N2CCN(Cc3cccc(Cl)c3Cl)CC2)cc1,active: 32%
5,CCCS(=O)(=O)Nc1ccc2n(c1=O)C[C@H]1C[C@@H]2CN(C(=O)c2ccccn2)C1,inconclusive: 16%
6,CCN(CC)C(=O)c1ccc2c(c1)C1C=CCC1C(C(=O)O)N2 (stereo not given),active: 60%
7,CN1CCN(Cc2ccccc2OC2CCCC2)CC1CCO (stereo not given),inconclusive: 11%
8,Nc1ccc(-c2ccc(N)c(N)c2)cc1N,inconclusive: 18%
9,COCCC(=O)N1C[C@@H]2C[C@H](C1)c1ccc(NC(=O)Nc3ccccc3)c(=O)n1C2,inconclusive: 22%
10,CC(=O)Nc1ccc(-c2ccc(=O)n3c2[C@@H]2C[C@@H](CN(C(=O)c4ccco4)C2)C3)cc1,inconclusive: 12%
11,C#C[C@H]1CN2CC[C@H]1C[C@@H]2CNC(=S)Nc1ccc(Cl)cc1,inconclusive: 10%
12,CCOC(=O)c1nc2ccccc2c(=O)n1-c1cc(Cl)c(OC)cc1OC,inactive
13,CCc1nn(C)c(Cl)c1CN1CC[C@@H](c2cccc(OC)c2)[C@H](O)C1,inactive
14,C=CCN(C)C(=O)[C@H]1CN2CCC1C[C@@H]2Cn1cc(C(C)(C)C)nn1 (stereo not given in full),inconclusive: 12%
15,CN(CCc1ccccn1)C1CCCC1,inactive
16,CN1CCC(N2C[C@@H]3OCC(=O)N[C@@H]3C2)CC1,inconclusive: 14%
17,CN(C)c1ccc(-c2cc([C@H]3CN4CC[C@H]3C[C@@H]4CNC(=S)Nc3ccccc3)n(C)n2)cc1,inconclusive: 19%
18,CSc1cccc(NC(=O)NC[C@H]2C[C@@H]3CCN2C[C@@H]3CN2CCOCC2)c1,inconclusive: 12%
19,C=C[C@H]1CN2CC[C@H]1C[C@@H]2CNC(=S)Nc1ccccc1,inactive
20,O=C1Nc2ccccc2C12CCN(Cc1ccnn1-c1ccccc1)CC2,inconclusive: 10%
21,Cn1nc(C2CCCC2)cc1[C@H]1CN2CC[C@H]1C[C@@H]2CNC(=O)c1ccc2c(c1)OCO2,inconclusive: 14%
22,N#CC1=C(N)Oc2n[nH]c(-c3ccc(F)cc3)c2C1c1ccc(F)cc1 (stereo not given),active: 32%
23,C=CCN1C(=O)NC(=O)/C(=C/c2cc(Br)c(OCC(=O)O)c(OC)c2)C1=O,inactive
24,CCN(CC)c1ccc(CN2CCN(c3ccccc3)CC2)cc1,inconclusive: 22%
25,O=C(C1c2ccccc2C(=O)N2CCc3ccccc3C12)N1CCC2(CC1)OCCO2 (stereo not given),inconclusive: 11%

# Copied from the list.
# Value for CCOC(=O)c1nc2ccccc2c(=O)n1-c1cc(Cl)c(OC)cc1OC under inhibition: inactive
# Value for O=C1Nc2ccccc2C12CCN(Cc1ccnn1-c1ccccc1)CC2 under inhibition: inconclusive: 10%
